# Test results published in article PMC6514849.
# Amino acid sequences for entries named in this document (tags omitted). Residues count along the entry.
# UniProt P31040, residues 43-664: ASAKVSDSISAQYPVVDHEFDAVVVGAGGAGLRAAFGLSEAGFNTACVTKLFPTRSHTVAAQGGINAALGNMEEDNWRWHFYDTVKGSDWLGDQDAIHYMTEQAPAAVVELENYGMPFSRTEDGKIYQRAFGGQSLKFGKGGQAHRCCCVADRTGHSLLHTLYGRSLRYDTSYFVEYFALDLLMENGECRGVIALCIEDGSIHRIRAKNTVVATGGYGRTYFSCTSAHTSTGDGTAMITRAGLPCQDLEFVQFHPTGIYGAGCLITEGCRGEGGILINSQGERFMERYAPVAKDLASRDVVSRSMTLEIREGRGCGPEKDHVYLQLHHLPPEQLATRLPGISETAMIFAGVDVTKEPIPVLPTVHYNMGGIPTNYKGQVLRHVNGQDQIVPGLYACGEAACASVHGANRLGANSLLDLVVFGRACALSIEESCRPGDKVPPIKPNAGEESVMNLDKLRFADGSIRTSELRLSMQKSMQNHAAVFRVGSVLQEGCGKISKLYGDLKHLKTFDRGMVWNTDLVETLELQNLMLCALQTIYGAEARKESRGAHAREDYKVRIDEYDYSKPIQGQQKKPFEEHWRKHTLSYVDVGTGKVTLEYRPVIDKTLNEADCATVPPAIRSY
# UniProt P17066: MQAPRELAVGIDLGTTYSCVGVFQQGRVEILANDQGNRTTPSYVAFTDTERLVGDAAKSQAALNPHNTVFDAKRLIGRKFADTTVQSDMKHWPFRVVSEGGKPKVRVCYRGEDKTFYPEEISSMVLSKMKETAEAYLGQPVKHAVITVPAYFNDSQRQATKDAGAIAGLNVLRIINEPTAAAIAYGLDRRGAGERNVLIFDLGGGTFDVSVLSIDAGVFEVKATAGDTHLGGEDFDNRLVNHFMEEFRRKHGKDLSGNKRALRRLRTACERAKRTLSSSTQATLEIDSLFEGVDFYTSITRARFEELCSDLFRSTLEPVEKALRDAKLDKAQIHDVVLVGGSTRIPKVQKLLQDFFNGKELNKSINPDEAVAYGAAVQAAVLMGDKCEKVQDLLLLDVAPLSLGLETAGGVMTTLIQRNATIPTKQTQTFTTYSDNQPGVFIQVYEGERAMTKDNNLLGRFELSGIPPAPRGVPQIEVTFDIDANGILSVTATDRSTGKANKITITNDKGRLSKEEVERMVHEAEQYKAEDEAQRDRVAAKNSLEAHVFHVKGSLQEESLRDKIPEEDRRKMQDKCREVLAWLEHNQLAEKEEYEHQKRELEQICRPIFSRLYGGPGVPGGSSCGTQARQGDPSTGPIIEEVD
# UniProt P04792: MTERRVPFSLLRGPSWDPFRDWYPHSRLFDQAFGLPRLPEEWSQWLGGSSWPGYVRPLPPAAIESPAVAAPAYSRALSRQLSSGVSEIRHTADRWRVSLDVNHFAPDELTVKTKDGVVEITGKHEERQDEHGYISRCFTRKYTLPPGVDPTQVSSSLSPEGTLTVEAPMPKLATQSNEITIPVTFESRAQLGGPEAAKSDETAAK
# UniProt O95573: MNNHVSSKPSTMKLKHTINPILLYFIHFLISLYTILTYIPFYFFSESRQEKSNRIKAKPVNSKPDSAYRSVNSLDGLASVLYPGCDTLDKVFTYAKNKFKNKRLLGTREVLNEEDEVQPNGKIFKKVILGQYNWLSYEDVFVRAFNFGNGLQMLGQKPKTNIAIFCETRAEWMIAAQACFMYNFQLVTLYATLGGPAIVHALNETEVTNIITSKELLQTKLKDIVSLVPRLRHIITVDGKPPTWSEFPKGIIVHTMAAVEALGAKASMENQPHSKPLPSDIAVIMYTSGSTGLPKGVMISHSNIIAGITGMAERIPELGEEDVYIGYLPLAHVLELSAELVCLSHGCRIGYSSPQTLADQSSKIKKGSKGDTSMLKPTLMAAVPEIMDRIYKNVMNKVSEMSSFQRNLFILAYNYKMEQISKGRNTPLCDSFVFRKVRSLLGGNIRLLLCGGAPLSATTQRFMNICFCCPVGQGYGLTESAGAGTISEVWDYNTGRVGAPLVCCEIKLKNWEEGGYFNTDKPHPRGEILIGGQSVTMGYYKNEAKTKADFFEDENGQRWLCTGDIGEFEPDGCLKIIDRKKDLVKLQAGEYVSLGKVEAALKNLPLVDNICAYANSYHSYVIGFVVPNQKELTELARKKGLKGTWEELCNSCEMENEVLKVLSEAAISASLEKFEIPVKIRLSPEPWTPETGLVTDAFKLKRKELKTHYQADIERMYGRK
# T1: PDZ binding kinase (PBK), endogenous in C4-2 cells (human (endogenous in C4-2)) (UniProt Q96KB5)
# T1 sequence: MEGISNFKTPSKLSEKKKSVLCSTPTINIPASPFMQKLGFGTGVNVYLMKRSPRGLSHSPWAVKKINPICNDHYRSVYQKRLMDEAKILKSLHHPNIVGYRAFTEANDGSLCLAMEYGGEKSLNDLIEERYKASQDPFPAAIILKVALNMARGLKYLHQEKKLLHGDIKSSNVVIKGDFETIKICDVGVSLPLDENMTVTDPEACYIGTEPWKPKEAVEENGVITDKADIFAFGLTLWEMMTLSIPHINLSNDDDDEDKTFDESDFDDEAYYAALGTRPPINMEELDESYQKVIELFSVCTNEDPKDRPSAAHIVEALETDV
# B1: ADT3 (protein, UniProt P12236 1-298)
# chain: MTEQAISFAKDFLAGGIAAAISKTAVAPIERVKLLLQVQHASKQIAADKQYKGIVDCIVRIPKEQGVLSFWRGNLANVIRYFPTQALNFAFKDKYKQIFLGGVDKHTQFWRYFAGNLASGGAAGATSLCFVYPLDFARTRLAADVGKSGTEREFRGLGDCLVKITKSDGIRGLYQGFSVSVQGIIIYRAAYFGVYDTAKGMLPDPKNTHIVVSWMIAQTVTAVAGVVSYPFDTVRRRMMMQSGRKGADIMYTGTVDCWRKIFRDEGGKAFFKGAWSNVLRGMGGAFVLVLYDELKKVI
# B2: SCO1 (protein, UniProt O75880 68-301)
# chain: STARPPPPWSQKGPGDSTRPSKPGPVSWKSLAITFAIGGALLAGMKHVKKEKAEKLEKERQRHIGKPLLGGPFSLTTHTGERKTDKDYLGQWLLIYFGFTHCPDVCPEELEKMIQVVDEIDSITTLPDLTPLFISIDPERDTKEAIANYVKEFSPKLVGLTGTREEVDQVARAYRVYYSPGPKDEDEDYIVDHTIIMYLIGPDGEFLDYFGQNKRKGEIAASIATHMRPYRKKS
# B3: SCO2 (protein, UniProt O43819 42-266)
# chain: GPAETGGQGQPQGPGLRTRLLITGLFGAGLGGAWLALRAEKERLQQQKRTEALRQAAVGQGDFHLLDHRGRARCKADFRGQWVLMYFGFTHCPDICPDELEKLVQVVRQLEAEPGLPPVQPVFITVDPERDDVEAMARYVQDFHPRLLGLTGSTKQVAQASHSYRVYYNAGPKDEDQDYIVDHSIAIYLLNPDGLFTDYYGRSRSAEQISDSVRRHMAAFRSVLS
# Target: T1, PDZ binding kinase (PBK), endogenous in C4-2 cells (human (endogenous in C4-2))
# Assay: affinity purification with mass spectrometry; RIME (rapid immunoprecipitation mass spectrometry) on C4-2 cells with a PBK antibody (Novus); filtered using IgG RIME
row,Molecule,binding
1,ATPB (from UniProt P06576 48-529),binds
2,SDHA (from UniProt P31040 43-664),binds
3,HSP76 (from UniProt P17066 1-643),binds
4,HSPB1 (from UniProt P04792 1-205),binds
5,ACSL3 (from UniProt O95573 1-720),binds
6,B1,binds
7,B2,binds
8,B3,binds

# No constants are given. Whether binding was seen depends on the method and setting. Binding seen in cells or lysates may run through a third protein. Here binding means that the protein was enriched with, or labelled near, the bait; the list need not be complete.
